Test results taken from paper PMC10867109.

Amino acid sequences for entries named in this document (tags omitted).
UniProt Q01105: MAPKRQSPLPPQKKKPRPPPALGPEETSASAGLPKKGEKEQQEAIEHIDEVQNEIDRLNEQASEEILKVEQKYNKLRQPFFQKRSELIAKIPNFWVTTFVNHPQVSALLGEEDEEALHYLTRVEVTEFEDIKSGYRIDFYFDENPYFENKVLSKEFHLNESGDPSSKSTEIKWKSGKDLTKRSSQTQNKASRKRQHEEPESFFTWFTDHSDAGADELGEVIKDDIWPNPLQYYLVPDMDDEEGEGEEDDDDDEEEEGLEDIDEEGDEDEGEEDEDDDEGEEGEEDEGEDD
UniProt Q13185: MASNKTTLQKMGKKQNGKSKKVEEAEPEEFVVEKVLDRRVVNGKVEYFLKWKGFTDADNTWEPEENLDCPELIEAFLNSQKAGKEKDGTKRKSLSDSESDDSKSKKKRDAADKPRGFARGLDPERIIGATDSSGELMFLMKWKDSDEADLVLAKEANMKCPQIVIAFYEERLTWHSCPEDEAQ
UniProt Q13263: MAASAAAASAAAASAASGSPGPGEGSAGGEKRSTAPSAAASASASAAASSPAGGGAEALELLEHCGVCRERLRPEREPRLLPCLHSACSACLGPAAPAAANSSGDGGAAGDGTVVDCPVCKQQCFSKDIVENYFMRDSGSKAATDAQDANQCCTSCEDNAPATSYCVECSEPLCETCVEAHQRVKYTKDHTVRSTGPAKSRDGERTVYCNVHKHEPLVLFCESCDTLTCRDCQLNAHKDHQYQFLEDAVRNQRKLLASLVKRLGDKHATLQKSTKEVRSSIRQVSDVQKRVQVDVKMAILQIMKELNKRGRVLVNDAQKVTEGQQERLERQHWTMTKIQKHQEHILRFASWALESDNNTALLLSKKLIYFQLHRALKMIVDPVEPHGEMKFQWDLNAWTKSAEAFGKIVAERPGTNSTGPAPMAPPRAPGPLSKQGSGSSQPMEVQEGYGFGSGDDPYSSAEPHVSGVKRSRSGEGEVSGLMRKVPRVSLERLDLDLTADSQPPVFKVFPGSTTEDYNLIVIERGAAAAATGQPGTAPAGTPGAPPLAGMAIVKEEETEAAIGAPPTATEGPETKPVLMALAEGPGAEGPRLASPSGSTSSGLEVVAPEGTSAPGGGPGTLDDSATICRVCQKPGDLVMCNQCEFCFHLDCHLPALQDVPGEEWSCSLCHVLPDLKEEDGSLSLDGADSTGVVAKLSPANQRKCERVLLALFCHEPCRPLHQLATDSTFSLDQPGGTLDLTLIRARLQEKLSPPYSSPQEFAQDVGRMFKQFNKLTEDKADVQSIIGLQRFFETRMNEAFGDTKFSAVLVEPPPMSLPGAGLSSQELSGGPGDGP

Biological target: Flag-HA-tagged SET (UniProt Q01105)
Assay: affinity purification with mass spectrometry; nuclear fraction of H1299-FH-SET stable cells (control H1299-EV), salt adjusted to 100 mM, tandem precipitation with Flag M2 beads and HA beads, elution with 0.1% TFA, SDS-PAGE bands digested with trypsin, LC-MS/MS

| binding | Molecule |
| --- | --- |
| binds | CBX3 (from UniProt Q13185 1-183) |
| binds | transcription intermediary factor 1-beta (TRIM28) (from UniProt Q13263 1-835) |
| binds | zinc finger and BTB domain-containing protein 11 (ZBTB11), endogenous (protein, UniProt O95625 1-1053) MSSEESYRAILRYLTNEREPYAPGTEGNVKRKIRKAAACYVVRGGTLYYQRRQRHRKTFAELEVVLQPERRRDLIEAAHLGPGGTHHTRHQTWHYLSKTYWWRGILKQVKDYIKQCSKCQEKLDRSRPISDVSEMLEELGLDLESGEESNESEDDLSNFTSSPTTASKPAKKKPVSKHELVFVDTKGVVKRSSPKHCQAVLKQLNEQRLSNQFCDVTLLIEGEEYKAHKSVLSANSEYFRDLFIEKGAVSSHEAVVDLSGFCKASFLPLLEFAYTSVLSFDFCSMADVAILARHLFMSEVLEICESVHKLMEEKQLTVYKKGEVQTVASTQDLRVQNGGTAPPVASSEGTTTSLPTELGDCEIVLLVNGELPEAEQNGEVGRQPEPQVSSEAESALSSVGCIADSHPEMESVDLITKNNQTELETSNNRENNTVSNIHPKLSKENVISSSPEDSGMGNDISAEDICAEDIPKHRQKVDQPLKDQENLVASTAKTDFGPDDDTYRSRLRQRSVNEGAYIRLHKGMEKKLQKRKAVPKSAVQQVAQKLVQRGKKMKQPKRDAKENTEEASHKCGECGMVFQRRYALIMHKLKHERARDYKCPLCKKQFQYSASLRAHLIRHTRKDAPSSSSSNSTSNEASGTSSEKGRTKREFICSICGRTLPKLYSLRIHMLKHTGVKPHACQVCGKTFIYKHGLKLHQSLHQSQKQFQCELCVKSFVTKRSLQEHMSIHTGESKYLCSVCGKSFHRGSGLSKHFKKHQPKPEVRGYHCTQCEKSFFEARDLRQHMNKHLGVKPFQCQFCDKCYSWKKDWYSHVKSHSVTEPYRCNICGKEFYEKALFRRHVKKATHGKKGRAKQNLERVCEKCGRKFTQLREYRRHMNNHEGVKPFECLTCGVAWADARSLKRHVRTHTGERPYVCPVCSEAYIDARTLRKHMTKFHRDYVPCKIMLEKDTLQFHNQGTQVAHAVSILTAGMQEQESSGPQELETVVVTGETMEALEAVAATEEYPSVSTLSDQSIMQVVNYVLAQQQGQKLSEVAEAIQTVKVEVAHISGGE |

No constants are given. Whether binding was seen depends on the method and setting. Binding seen in cells or lysates may run through a third protein. Here binding means that the protein was enriched with, or labelled near, the bait; the list need not be complete.
